Measured values as given in PubChem BioAssay AID330 (DTP/NCI, 2004).
The list does not hold the whole screen: it is rich in T/C values a quarter to a half above the control, in often repeated tests (any T/C) and in doses without a T/C. Further doses and runs are listed elsewhere. T/C gives the treated animals as a percentage of the vehicle group. Some doses have a count of surviving animals in place of a T/C: the source files T/C as zero there, which appears to mark a toxic dose or a test without result, not a measured value. Some doses without a T/C left all or most animals alive at the check, yet need not have been tolerated: the source hardly ever lists a survival T/C far under the control, and the zero likely stands for such cases as well. Survivors were counted at the toxicity check, usually on the fifth day, unless a day is given; later deaths do not show. Schedules are NCI's codes, taken here to give the interval after Q, in days (D) or hours (H), and the number of doses after X. Some entries were tested several times; the values are given in rising order. For survival time, the PubChem record calls one and a half times the control and up active, and a quarter to a half above the control has no call in these data; cut-offs in other NCI protocols can differ. Some T/C values are followed by the survivors on the day toxicity was checked, most often the fifth; without a count, all were alive then.

Tested on: P388 leukemia ip, CD2F1 mice, survival T/C
Test: NCI In Vivo Anticancer Drug Screen. Data for tumor model P388 Leukemia (intraperitoneal) in CD2F1 (CDF1) mice
Settings: T/C endpoint: median survival time, higher T/C = longer survival
[1] = dose: 50.0 mg/kg/injection, schedule: Q01DX009 (ip), vehicle: Klucel (hydroxypropylcellulose) (HPC)
[2] = dose: 100.0 mg/kg/injection, schedule: Q01DX009 (ip), vehicle: Klucel (hydroxypropylcellulose) (HPC)
[3] = dose: 200.0 mg/kg/injection, schedule: Q01DX009 (ip), vehicle: Klucel (hydroxypropylcellulose) (HPC)
[4] = dose: 50.0 mg/kg/injection, schedule: Q01DX009 (ip), vehicle: saline with Tween-80
[5] = dose: 100.0 mg/kg/injection, schedule: Q01DX009 (ip), vehicle: saline with Tween-80
[6] = dose: 200.0 mg/kg/injection, schedule: Q01DX009 (ip), vehicle: saline with Tween-80
[7] = dose: 25.0 mg/kg/injection, schedule: Q01DX009 (ip), vehicle: saline with Tween-80
[8] = dose: 240.0 mg/kg/injection, schedule: Q01DX005 (ip), vehicle: saline with Tween-80
[9] = dose: 100.0 mg/kg/injection, schedule: Q01DX005 (ip), vehicle: saline with Tween-80
[10] = dose: 200.0 mg/kg/injection, schedule: Q01DX005 (ip), vehicle: saline with Tween-80
[11] = dose: 100.0 mg/kg/injection, schedule: Q04DX002 (ip), vehicle: saline with Tween-80

In the case of `CCCCc1ccc(-n2c(C)c(COC(=O)NC)c(COC(=O)NC)c2C)cc1`, the survivor count [1] is reported as 4 of 6 and 5 of 6.

For `C=C1C[C@](C(N)=O)(C2OC3OC(C)(C)OC3C2OCc2ccccc2)OC1=O` (some centres undefined), the survivor count (dose: 200.0 mg/kg/injection, schedule: Q01DX001 (ip), vehicle: saline with Tween-80) was 0 of 6 and the survivor count (dose: 400.0 mg/kg/injection, schedule: Q01DX001 (ip), vehicle: saline with Tween-80) was 0 of 6.

`CC(=O)Nc1ccc(C(=O)CCl)c(Cl)c1` was tested, and the survivor count [1] was 1 of 6 and 2 of 6, the survivor count [2] was 0 of 6 and the survivor count [3] was 0 of 6.

For `CC(=O)CC(=O)c1ccc(F)cc1.CC(=O)CC(=O)c1ccc(F)cc1.[Cu]`, the survivor count (dose: 40.0 mg/kg/injection, schedule: Q01DX009 (ip), vehicle: saline with Tween-80) was 0 of 6, the survivor count [4] was 0 of 6 and the survivor count [5] was 0 of 6. For the same compound, the survivor count [6] was 0 of 6.

In the case of `[CH3][Sn]([CH3])([O]C(=O)CNC(=O)c1ccccc1)[O]C(=O)CNC(=O)c1ccccc1`, the survivor count (dose: 100.0 mg/kg/injection, schedule: Q01DX001 (ip), vehicle: saline) is reported as 0 of 6, the survivor count (dose: 200.0 mg/kg/injection, schedule: Q01DX001 (ip), vehicle: saline) is reported as 0 of 6 and the survivor count (dose: 400.0 mg/kg/injection, schedule: Q01DX001 (ip), vehicle: saline) is reported as 0 of 6.

`Cc1nc(Cl)c(C)c(=O)[nH]1` was tested, and the survivor count (dose: 200.0 mg/kg/injection, schedule: Q01DX009 (ip), vehicle: saline) was 0 of 6.

For `Cc1c(O)c(=O)ccn1CCCl`, the survivor count (dose: 400.0 mg/kg/injection, schedule: Q01DX005 (ip), vehicle: saline) was 0 of 6.

With `CCCCCCC(=O)/C=C/c1ccc(OC(=O)c2ccc(OC)cc2)cc1` the survivor count [7] was 5 of 6, the survivor count [5] was 6 of 6 and the survivor count [6] was 6 of 6.

For `Cc1cc(O)c2c(c1)C(=O)C(c1c(C)cc3c(c1O)C(=O)C1OC1C3=O)=CC2=O` (centres undefined), the survivor count (dose: 12.5 mg/kg/injection, schedule: Q01DX005 (ip), vehicle: Klucel (hydroxypropylcellulose) (HPC)) was 0 of 5, the survivor count (dose: 25.0 mg/kg/injection, schedule: Q01DX005 (ip), vehicle: Klucel (hydroxypropylcellulose) (HPC)) was 0 of 5 and the survivor count (dose: 50.0 mg/kg/injection, schedule: Q01DX005 (ip), vehicle: Klucel (hydroxypropylcellulose) (HPC)) was 0 of 5. For the same compound, the survivor count (dose: 100.0 mg/kg/injection, schedule: Q01DX005 (ip), vehicle: Klucel (hydroxypropylcellulose) (HPC)) was 0 of 5 and the survivor count (dose: 200.0 mg/kg/injection, schedule: Q01DX005 (ip), vehicle: Klucel (hydroxypropylcellulose) (HPC)) was 0 of 5.

For `CCN(CC)C(=O)N1C=CC(C)C=C1`, the survivor count [8] was 1 of 6.

In the case of `O=NNc1nc2ncccc2cc1-c1ccccc1Cl`, the T/C (dose: 6.25 mg/kg/injection, schedule: Q01DX009 (ip), vehicle: water) is reported as 133 and 141 % of control, the T/C (dose: 12.5 mg/kg/injection, schedule: Q01DX009 (ip), vehicle: water) is reported as 132 % of control and the T/C (dose: 25.0 mg/kg/injection, schedule: Q01DX009 (ip), vehicle: water) is reported as 132 % of control. The survivor count (dose: 50.0 mg/kg/injection, schedule: Q01DX009 (ip), vehicle: water) was 5 of 6 and 6 of 6.

For `CCCCOC1OCN(C2CCCCC2)CC1(C)C` (centres undefined), the T/C [5] was 128 and 129 % of control [5 of 6 alive] and the T/C [6] was 126 and 145 % of control.

With `C[Si]c1ccccc1CN(C)C` the survivor count (dose: 200.0 mg/kg/injection, schedule: Q01DX005 (ip), vehicle: saline) was 1 of 6.

In the case of `C[C@]12CC[C@@H](OC(=O)N(CCCl)N=O)C[C@@H]1CC[C@@H]1[C@@H]2CC[C@]2(C)C(=O)CC[C@@H]12`, the T/C (dose: 62.5 mg/kg/injection, schedule: Q04DX003 (ip), vehicle: saline) is reported as 134 % of control, the survivor count (dose: 100.0 mg/kg/injection, schedule: Q01DX009 (ip), vehicle: other) is reported as 4 of 6 and the T/C (dose: 250.0 mg/kg/injection, schedule: Q04DX003 (ip), vehicle: saline) is reported as 126 % of control.

For `CCC(/C=C/c1ccccc1)=N\NC(=O)c1ccc(Cl)c(Cl)c1`, the survivor count (dose: 120.0 mg/kg/injection, schedule: Q01DX005 (ip), vehicle: saline with Tween-80) was 6 of 6.

`CCC[CH2][Sn]([CH2]CCC)([O]c1ccccc1C=Nc1ccc(F)cc1)[O]c1ccccc1C=Nc1ccc(F)cc1` was tested, and the survivor count (dose: 25.0 mg/kg/injection, schedule: Q01DX005 (ip), vehicle: saline with Tween-80) was 6 of 6, the survivor count (dose: 50.0 mg/kg/injection, schedule: Q01DX005 (ip), vehicle: saline with Tween-80) was 0 of 6 and the survivor count [9] was 0 of 6. The survivor count [10] was 0 of 6.

In the case of `c1ccc(-c2n[se]c(-c3ccccc3)n2)cc1`, the survivor count [11] is reported as 6 of 6, the survivor count (dose: 200.0 mg/kg/injection, schedule: Q04DX002 (ip), vehicle: saline with Tween-80) is reported as 3 of 6 and the survivor count (dose: 400.0 mg/kg/injection, schedule: Q04DX002 (ip), vehicle: saline with Tween-80) is reported as 0 of 6.

In the case of `COc1cc2c3c(c1)-c1c(ccc(OC)c1O)CC3N(C)CC2` (centres undefined), the survivor count (dose: 100.0 mg/kg/injection, schedule: Q04DX003 (ip), vehicle: DMSO) is reported as 3 of 6.

With `C#CCOC(=O)c1ccccc1` the survivor count [9] was 3 of 6 and the survivor count [10] was 0 of 6.

With `CN=C(N)N/N=C(\C)c1ccc2c(c1)Cc1cc(/C(C)=N/NC(N)=NC)ccc1-2` the T/C (dose: 0.78 mg/kg/injection, schedule: Q04DX002 (ip), vehicle: saline with Tween-80) was 133 % of control, the T/C (dose: 1.56 mg/kg/injection, schedule: Q04DX002 (ip), vehicle: saline with Tween-80) was 132 and 145 % of control and the T/C (dose: 3.12 mg/kg/injection, schedule: Q04DX002 (ip), vehicle: saline with Tween-80) was 135 [5 of 6 alive], 142, 142 % of control [5 of 6 alive]. For the same compound, the T/C (dose: 6.25 mg/kg/injection, schedule: Q04DX002 (ip), vehicle: saline with Tween-80) was 148 and 149 % of control [5 of 6 alive], the survivor count (dose: 12.5 mg/kg/injection, schedule: Q04DX002 (ip), vehicle: saline with Tween-80) was 5 of 6 and 6 of 6 and the survivor count (dose: 25.0 mg/kg/injection, schedule: Q04DX002 (ip), vehicle: saline with Tween-80) was 2 of 6. The survivor count (dose: 50.0 mg/kg/injection, schedule: Q04DX002 (ip), vehicle: saline with Tween-80) was 0 of 6 and the survivor count [11] was 0 of 6.

For `C=C1C(=O)OC2/C=C(\C)CC/C=C(/C(=O)OC)C(OC(C)=O)C(OC(=O)C(C)(O)C(C)O)C12` (centres undefined), the T/C (dose: 6.0 mg/kg/injection, schedule: Q01DX009 (ip), vehicle: Klucel (hydroxypropylcellulose) (HPC)) was 129 % of control.

With `O=C(c1ccc2c(c1)C(=O)NC2=O)c1ccc2c(c1)C(=O)NC2=O` the survivor count [6] was 6 of 6.

`O=C(CI)Nc1cccc(C(=O)O)c1O` was tested, and the survivor count [1] was 3 of 6, the survivor count [2] was 0 of 6 and the survivor count [3] was 0 of 6.

With `CC1(c2ccc(Cl)cc2)OC(=O)C(=Cc2ccc([N+](=O)[O-])s2)C(=O)O1` (centres undefined) the T/C [7] was 125 % of control, the T/C [4] was 125 and 127 % of control and the T/C [5] was 129 % of control [5 of 6 alive]. The survivor count [6] was 2 of 6 and 4 of 6.

In the case of `CS(=O)(=O)OCCC[Se]Cc1ccccc1C[Se]CCCOS(C)(=O)=O`, the survivor count [8] is reported as 0 of 6.

For `Cc1ccc2c(ccc(/C=C/c3ccc(O)c4ncccc34)[n+]2C)c1`, the survivor count [4] was 5 of 6.
